# Test results as given in patent US20140038203A1, “METHODS FOR DETECTING OR PREDICTING KIDNEY DISEASE” (MUSC FOUNDATION FOR RESEARCH DEVELOPMENT, priority 2012, published 2014).
# B1: Secreted and transmembrane protein 1 (protein, UniProt Q8WVN6 29-248, looked up)
# Secreted and transmembrane …: QNEGWDSPICTEGVVSVSWGENTVMSCNISNAFSHVNIKLRAHGQESAIFNEVAPGYFSRDGWQLQVQGGVAQLVIKGARDSHAGLYMWHLVGHQRNNRQVTLEVSGAEPQSAPDTGFWPVPAVVTAVFILLVALVMFAWYRCRCSQQRREKKFFLLEPQMKVAALRAGAQQGLSRASAELWTPDSEPTPRPLALVFKPSPLGALELLSPQPLFPYAADP
# B2: Keratin, type II cytoskeletal 8 (protein, UniProt P05787 1-483, looked up)
# Keratin, type II cytoskeletal …: MSIRVTQKSYKVSTSGPRAFSSRSYTSGPGSRISSSSFSRVGSSNFRGGLGGGYGGASGMGGITAVTVNQSLLSPLVLEVDPNIQAVRTQEKEQIKTLNNKFASFIDKVRFLEQQNKMLETKWSLLQQQKTARSNMDNMFESYINNLRRQLETLGQEKLKLEAELGNMQGLVEDFKNKYEDEINKRTEMENEFVLIKKDVDEAYMNKVELESRLEGLTDEINFLRQLYEEEIRELQSQISDTSVVLSMDNSRSLDMDSIIAEVKAQYEDIANRSRAEAESMYQIKYEELQSLAGKHGDDLRRTKTEISEMNRNISRLQAEIEGLKGQRASLEAAIADAEQRGELAIKDANAKLSELEAALQRAKQDMARQLREYQELMNVKLALDIEIATYRKLLEGEESRLESGMQNMSIHTKTTSGYAGGLSSAYGGLTSPGLSYSLGSSFGSGAGSSSFSRTSSSRAVVVKKIETRDGKLVSESSDVLPK
# B3: Keratin, type I cytoskeletal 14 (protein, UniProt P02533 1-472, looked up)
# Keratin, type I cytoskeletal …: MTTCSRQFTSSSSMKGSCGIGGGIGGGSSRISSVLAGGSCRAPSTYGGGLSVSSSRFSSGGACGLGGGYGGGFSSSSSSFGSGFGGGYGGGLGAGLGGGFGGGFAGGDGLLVGSEKVTMQNLNDRLASYLDKVRALEEANADLEVKIRDWYQRQRPAEIKDYSPYFKTIEDLRNKILTATVDNANVLLQIDNARLAADDFRTKYETELNLRMSVEADINGLRRVLDELTLARADLEMQIESLKEELAYLKKNHEEEMNALRGQVGGDVNVEMDAAPGVDLSRILNEMRDQYEKMAEKNRKDAEEWFFTKTEELNREVATNSELVQSGKSEISELRRTMQNLEIELQSQLSMKASLENSLEETKGRYCMQLAQIQEMIGSVEEQLAQLRCEMEQQNQEYKILLDVKTRLEQEIATYRRLLEGEDAHLSSSQFSSGSQSSRDVTSSSRQIRTKVMDVHDGKVVSTHEQVLRTKN
# B4: Carboxypeptidase N subunit 2 (protein, UniProt P22792 22-545, looked up)
# Carboxypeptidase N subunit 2: CPMGCDCFVQEVFCSDEELATVPLDIPPYTKNIIFVETSFTTLETRAFGSNPNLTKVVFLNTQLCQFRPDAFGGLPRLEDLEVTGSSFLNLSTNIFSNLTSLGKLTLNFNMLEALPEGLFQHLAALESLHLQGNQLQALPRRLFQPLTHLKTLNLAQNLLAQLPEELFHPLTSLQTLKLSNNALSGLPQGVFGKLGSLQELFLDSNNISELPPQVFSQLFCLERLWLQRNAITHLPLSIFASLGNLTFLSLQWNMLRVLPAGLFAHTPCLVGLSLTHNQLETVAEGTFAHLSNLRSLMLSYNAITHLPAGIFRDLEELVKLYLGSNNLTALHPALFQNLSKLELLSLSKNQLTTLPEGIFDTNYNLFNLALHGNPWQCDCHLAYLFNWLQQYTDRLLNIQTYCAGPAYLKGQVVPALNEKQLVCPVTRDHLGFQVTWPDESKAGGSWDLAVQERAARSQCTYSNPEGTVVLACDQAQCRWLNVQLSPQQGSLGLQYNASQEWDLRSSCGSLRLTVSIEARAAGP
# B5: Keratin, type I cytoskeletal 9 (protein, UniProt P35527 1-623, looked up)
# Keratin, type I cytoskeletal 9: MSCRQFSSSYLSRSGGGGGGGLGSGGSIRSSYSRFSSSGGGGGGGRFSSSSGYGGGSSRVCGRGGGGSFGYSYGGGSGGGFSASSLGGGFGGGSRGFGGASGGGYSSSGGFGGGFGGGSGGGFGGGYGSGFGGFGGFGGGAGGGDGGILTANEKSTMQELNSRLASYLDKVQALEEANNDLENKIQDWYDKKGPAAIQKNYSPYYNTIDDLKDQIVDLTVGNNKTLLDIDNTRMTLDDFRIKFEMEQNLRQGVDADINGLRQVLDNLTMEKSDLEMQYETLQEELMALKKNHKEEMSQLTGQNSGDVNVEINVAPGKDLTKTLNDMRQEYEQLIAKNRKDIENQYETQITQIEHEVSSSGQEVQSSAKEVTQLRHGVQELEIELQSQLSKKAALEKSLEDTKNRYCGQLQMIQEQISNLEAQITDVRQEIECQNQEYSLLLSIKMRLEKEIETYHNLLEGGQEDFESSGAGKIGLGGRGGSGGSYGRGSRGGSGGSYGGGGSGGGYGGGSGSRGGSGGSYGGGSGSGGGSGGGYGGGSGGGHSGGSGGGHSGGSGGNYGGGSGSGGGSGGGYGGGSGSRGGSGGSHGGGSGFGGESGGSYGGGEEASGSGGGYGGGSGKSSHS
# B6: Keratin, type I cytoskeletal 10 (protein, UniProt P13645 1-584, looked up)
# Keratin, type I cytoskeletal …: MSVRYSSSKHYSSSRSGGGGGGGGCGGGGGVSSLRISSSKGSLGGGFSSGGFSGGSFSRGSSGGGCFGGSSGGYGGLGGFGGGSFRGSYGSSSFGGSYGGIFGGGSFGGGSFGGGSFGGGGFGGGGFGGGFGGGFGGDGGLLSGNEKVTMQNLNDRLASYLDKVRALEESNYELEGKIKEWYEKHGNSHQGEPRDYSKYYKTIDDLKNQILNLTTDNANILLQIDNARLAADDFRLKYENEVALRQSVEADINGLRRVLDELTLTKADLEMQIESLTEELAYLKKNHEEEMKDLRNVSTGDVNVEMNAAPGVDLTQLLNNMRSQYEQLAEQNRKDAEAWFNEKSKELTTEIDNNIEQISSYKSEITELRRNVQALEIELQSQLALKQSLEASLAETEGRYCVQLSQIQAQISALEEQLQQIRAETECQNTEYQQLLDIKIRLENEIQTYRSLLEGEGSSGGGGRGGGSFGGGYGGGSSGGGSSGGGHGGGHGGSSGGGYGGGSSGGGSSGGGYGGGSSSGGHGGSSSGGYGGGSSGGGGGGYGGGSSGGGSSSGGGYGGGSSSGGHKSSSSGSVGESSSKGPRY
# B7: Tumor necrosis factor receptor superfamily member 14 (protein, UniProt Q92956 39-283, looked up)
# Tumor necrosis factor …: LPSCKEDEYPVGSECCPKCSPGYRVKEACGELTGTVCEPCPPGTYIAHLNGLSKCLQCQMCDPAMGLRASRNCSRTENAVCGCSPGHFCIVQDGDHCAACRAYATSSPGQRVQKGGTESQDTLCQNCPPGTFSPNGTLEECQHQTKCSWLVTKAGAGTSSSHWVWWFLSGSLVIVIVCSTVGLIICVKRRKPRGDVVKVIVSVQRKRQEAEGEATVIEALQAPPDVTTVAVEETIPSFTGRSPNH
# B8: Protein shisa-5 (protein, UniProt Q8N114 29-240, looked up)
# Protein shisa-5: EVCMASRGLSLFPESCPDFCCGTCDDQYCCSDVLKKFVWSEERCAVPEASVPASVEPVEQLGSALRFRPGYNDPMSGFGATLAVGLTIFVLSVVTIIICFTCSCCCLYKTCRRPRPVVTTTTSTTVVHAPYPQPPSVPPSYPGPSYQGYHTMPPQPGMPAAPYPMQYPPPYPAQPMGPPAYHETLAGGAAAPYPASQPPYNPAYMDAPKAAL
# B9: Tetratricopeptide repeat protein 17 (protein, UniProt Q96AE7 1-1141, looked up)
# Tetratricopeptide repeat …: MAAAVGVRGRYELPPCSGPGWLLSLSALLSVAARGAFATTHWVVTEDGKIQQQVDSPMNLKHPHDLVILMRQEATVNYLKELEKQLVAQKIHIEENEDRDTGLEQRHNKEDPDCIKAKVPLGDLDLYDGTYITLESKDISPEDYIDTESPVPPDPEQPDCTKILELPYSIHAFQHLRGVQERVNLSAPLLPKEDPIFTYLSKRLGRSIDDIGHLIHEGLQKNTSSWVLYNMASFYWRIKNEPYQVVECAMRALHFSSRHNKDIALVNLANVLHRAHFSADAAVVVHAALDDSDFFTSYYTLGNIYAMLGEYNHSVLCYDHALQARPGFEQAIKRKHAVLCQQKLEQKLEAQHRSLQRTLNELKEYQKQHDHYLRQQEILEKHKLIQEEQILRNIIHETQMAKEAQLGNHQICRLVNQQHSLHCQWDQPVRYHRGDIFENVDYVQFGEDSSTSSMMSVNFDVQSNQSDINDSVKSSPVAHSILWIWGRDSDAYRDKQHILWPKRADCTESYPRVPVGGELPTYFLPPENKGLRIHELSSDDYSTEEEAQTPDCSITDFRKSHTLSYLVKELEVRMDLKAKMPDDHARKILLSRINNYTIPEEEIGSFLFHAINKPNAPIWLILNEAGLYWRAVGNSTFAIACLQRALNLAPLQYQDVPLVNLANLLIHYGLHLDATKLLLQALAINSSEPLTFLSLGNAYLALKNISGALEAFRQALKLTTKCPECENSLKLIRCMQFYPFLYNITSSVCSGTVVEESNGSDEMENSDETKMSEEILALVDEFQQAWPLEGFGGALEMKGRRLDLQGIRVLKKGPQDGVARSSCYGDCRSEDDEATEWITFQVKRVKKPKGDHKKTPGKKVETGQIENGHRYQANLEITGPKVASPGPQGKKRDYQRLGWPSPDECLKLRWVELTAIVSTWLAVSSKNIDITEHIDFATPIQQPAMEPLCNGNLPTSMHTLDHLHGVSNRASLHYTGESQLTEVLQNLGKDQYPQQSLEQIGTRIAKVLEKNQTSWVLSSMAALYWRVKGQGKKAIDCLRQALHYAPHQMKDVPLISLANILHNAKLWNDAVIVATMAVEIAPHFAVNHFTLGNVYVAMEEFEKALVWYESTLKLQPEFVPAKNRIQTIQCHLMLKKGRRSP
# Assay: RRT study: LC-MS/MS urinary proteomics, AKI after cardiac surgery, RRT vs No RRT
# Design: species or system human
# Conditions: direction of differential abundance, patients who did vs did not require RRT/dialysis
row,Molecule,Up or Down
1,B1,Down
2,B2,Down
3,B3,Down
4,B4,Down
5,B5,Down
6,B6,Down
7,B7,Down
8,B8,Down

# Same assay, conditions: direction of urinary abundance, patients who did vs did not require RRT/dialysis
row,Molecule,Up or Down
1,B9,Up

# Same assay, conditions: patients who did vs did not require RRT/dialysis
row,Molecule,Mean Fold Change
1,B1,2.139
2,B2,2.543
3,B3,12.58
4,B4,1.661
5,B5,2.181
6,B6,3.109
7,B7,3.609
8,B8,2.413
